Data taken from patent US20080027094A1, “Tropane Compounds and Pharmaceutical Compositions Comprising the Same as an Active Ingredient” (Ono Pharmaceutical Co., Ltd., priority 2004, published 2008).

These molecules were tested on metacholine-induced airway-constriction (assay: Effect on the airways constriction in guinea pigs (Konzett-Rossler method)). Conditions: intratracheal application, airway effective dose (Experiment 1) / bladder no-effective dose (Experiment 2).
Type: in vivo
Procedure: The present experiment was carried out with Hartley male guinea pigs (supplied by Nippon SLC Co.) as divided into groups each consisting of 3 to 4 animals. The guinea pigs were anesthetized with pentobarbital sodium (60 mg/kg, given intraperitoneally), and were subjected individually to insertion of a cannula into the airways. Each airway cannula was connected with a volume-controlled respirator (Model SN-480-N, manufactured by Shinano Seisakusho Co.) to perform artificial respiration at a ventilation volume of 5 mL and at a ventilation rate of ca. 70/min. For the purpose of application of metacholine, a catheter was inserted into the carotid vein. The test substance was dissolved in an aqueous solution or aqueous solution containing DMSO, and the solution was applied into the trachea with use of an intratracheal application device for a liquid IA-1b (supplied by Pen-Century Co.) (the application amount of the liquid; 0.8 mL/kg). Prior to application of the test substance, and from 5 to 60 min. thereafter, respectively, metacholine was applied intravenously (10 μg/kg) to induce the airway-constriction, and the pressure at which air was passed through the airways, or the air-passage pressure through the airways, was measured with use of the Konzett-Rossler method. The airways-constriction ratio was taken as a proportion, expressed in percentage, of the air-passage pressure through the airways measured after individual application of the test substance to the maximum air-passage pressure through the airways found when the airways were completely clogged and occluded. The constriction-suppression ratio of the test substance was expressed as a proportion of the average or mean airway-constriction ratio found for the groups not treated through application of the test substance to the average or mean airway-constriction ratio found for the groups treated through application of the test substance. It is to be noticed that the minimum dose, at which not less than 80% of the present reaction is suppressed at a point of time falling within the length of time of 60 min. after application of the test substance, is taken as the effective dose (provided, however, that the airway-constriction suppression ratio, when applied at a dose equivalent to one third of the effective dose, shall be less than 80% at all the points of time falling within the length of time 60 min. after application of the test substance).
With `CCOC(=O)COc1cccc(C[N@+]2(C)[C@@H]3CC[C@H]2C[C@@H](OC(=O)C(O)(c2cccs2)c2cccs2)C3)c1.[Br-]` [Example 14 (4), (1R,3r,5S,8s)-8-[3-(2-Ethoxy-2-oxoethoxy)benzyl]-3-({hydroxy[di(2-thienyl)]acetyl}oxy)-8-methyl-8-azoniabicyclo[3.2.1]octane bromide] the “proportion of the effective dose for the airway-constriction suppression to the no-effective dose for the bladder constriction” value was 1/10. With `CCOC(=O)COc1ccc2cc(C[N@@+]3(C)[C@@H]4CC[C@H]3C[C@@H](OC(=O)C(O)(c3ccccc3)c3ccccc3)C4)ccc2c1.[Br-]` [Example 23, (1R,3r,5S,8r)-8-{[6-(2-Ethoxy-2-oxoethoxy)-2-naphthyl]-methyl}-3-{[hydroxy(diphenyl)acetyl]oxy}-8-methyl-8-azoniabicyclo[3.2.1]octane bromide] the “proportion of the effective dose for the airway-constriction suppression to the no-effective dose for the bladder constriction” value was “ca. 1/30”. `CCOC(=O)CCCc1ccc(C[N@+]2(C)[C@@H]3C=C[C@H]2C[C@H](OC(=O)C(O)(c2ccccc2)c2ccccc2)C3)s1.[Cl-]` [Example 24, (1R,3r,5S,8r)-8-{[5-(4-Ethoxy-4-oxobutyl)-2-thienyl]-methyl}-3-{[hydroxy(diphenyl)acetyl]oxy}-8-methyl-8-azoniabicyclo[3.2.1]oct-6-en chloride] was tested, and the “proportion of the effective dose for the airway-constriction suppression to the no-effective dose for the bladder constriction” value was “ca. 1/30”. With `CCOC(=O)CCc1ccc(C[N@+]2(C)[C@@H]3C=C[C@H]2C[C@H](OC(=O)C(O)(c2cccs2)c2cccs2)C3)cc1.[Br-]` [Example 25, (1R,3r,5S,8r)-8-[4-(3-Ethoxy-3-oxopropyl)benzyl]-3-({hydroxy[di(2-thienyl)]acetyl}oxy)-8-methyl-8-azoniabicyclo[3.2.1]oct-6-en bromide] the “proportion of the effective dose for the airway-constriction suppression to the no-effective dose for the bladder constriction” value was “ca. 1/30”. With `C[N+]1(C)[C@@H]2C[C@@H](OC(=O)C(O)(c3cccs3)c3cccs3)C[C@H]1[C@@H]1O[C@@H]12` [tiotropium, reference compound] the “proportion of the effective dose for the airway-constriction suppression to the no-effective dose for the bladder constriction” value was 10.
